Data reported in PMC6139139.
These are yes or no findings as the source states them, for the method shown. In cells and extracts the contact can be indirect. Some binding calls cover weakened binding; strength is not graded here.

Sequences of proteins named here, by UniProt entry; tags and fusion partners are left off.
UniProt P26450: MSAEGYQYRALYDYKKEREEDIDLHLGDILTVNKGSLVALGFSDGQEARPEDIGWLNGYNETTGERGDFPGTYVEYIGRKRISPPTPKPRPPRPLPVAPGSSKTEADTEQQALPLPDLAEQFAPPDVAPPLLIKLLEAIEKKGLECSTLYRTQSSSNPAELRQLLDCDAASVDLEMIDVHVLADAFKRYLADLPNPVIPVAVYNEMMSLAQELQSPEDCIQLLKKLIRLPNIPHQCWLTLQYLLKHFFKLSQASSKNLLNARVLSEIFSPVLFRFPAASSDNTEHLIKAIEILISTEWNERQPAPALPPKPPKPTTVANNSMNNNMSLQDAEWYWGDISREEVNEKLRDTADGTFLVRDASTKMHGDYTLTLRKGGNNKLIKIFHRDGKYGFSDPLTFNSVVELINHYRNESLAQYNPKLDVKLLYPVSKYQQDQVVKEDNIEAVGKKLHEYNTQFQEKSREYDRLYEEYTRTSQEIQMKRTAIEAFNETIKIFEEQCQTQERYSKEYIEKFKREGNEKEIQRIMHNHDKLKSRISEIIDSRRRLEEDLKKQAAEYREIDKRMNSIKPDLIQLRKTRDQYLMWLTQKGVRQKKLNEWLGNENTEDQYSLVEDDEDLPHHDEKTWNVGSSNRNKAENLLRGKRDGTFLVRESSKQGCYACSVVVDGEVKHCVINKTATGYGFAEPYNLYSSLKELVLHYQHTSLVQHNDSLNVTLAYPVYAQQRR

Experiments:
Test in all cases: co-IP; quantitative multiplex co-immunoprecipitation (QMI): IP antibodies on Luminex beads incubated overnight at 4 C with NP-40 lysate of P2 synaptosomes from mouse hippocampus, probed with biotinylated antibodies and streptavidin-PE, read on a flow cytometer; four ASD models (Shank3B-/-, Shank3 delta ex4-9+/-, Ube3a2xTG, E12.5 VPA) against littermate controls; only changes against control are told
[1] = target: T1, Homer1 (mouse (endogenous in mouse brain)) (UniProt Q9Z2Y3)
T1 sequence: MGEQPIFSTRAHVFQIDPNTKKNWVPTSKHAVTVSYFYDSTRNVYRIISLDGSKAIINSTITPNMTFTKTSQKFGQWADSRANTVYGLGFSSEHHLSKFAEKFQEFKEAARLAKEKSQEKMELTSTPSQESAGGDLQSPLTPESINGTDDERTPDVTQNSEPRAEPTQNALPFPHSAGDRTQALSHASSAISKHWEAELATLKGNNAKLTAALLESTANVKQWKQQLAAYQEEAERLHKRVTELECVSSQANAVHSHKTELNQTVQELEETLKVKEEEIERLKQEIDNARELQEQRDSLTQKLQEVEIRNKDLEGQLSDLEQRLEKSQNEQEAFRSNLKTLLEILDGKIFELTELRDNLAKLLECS

[2] = target: PI3K (p85alpha regulatory subunit) (mouse (endogenous in mouse brain)) (UniProt P26450)
[3] = target: T2, Ube3A (mouse (endogenous in mouse brain)) (UniProt O08759)
T2 sequence: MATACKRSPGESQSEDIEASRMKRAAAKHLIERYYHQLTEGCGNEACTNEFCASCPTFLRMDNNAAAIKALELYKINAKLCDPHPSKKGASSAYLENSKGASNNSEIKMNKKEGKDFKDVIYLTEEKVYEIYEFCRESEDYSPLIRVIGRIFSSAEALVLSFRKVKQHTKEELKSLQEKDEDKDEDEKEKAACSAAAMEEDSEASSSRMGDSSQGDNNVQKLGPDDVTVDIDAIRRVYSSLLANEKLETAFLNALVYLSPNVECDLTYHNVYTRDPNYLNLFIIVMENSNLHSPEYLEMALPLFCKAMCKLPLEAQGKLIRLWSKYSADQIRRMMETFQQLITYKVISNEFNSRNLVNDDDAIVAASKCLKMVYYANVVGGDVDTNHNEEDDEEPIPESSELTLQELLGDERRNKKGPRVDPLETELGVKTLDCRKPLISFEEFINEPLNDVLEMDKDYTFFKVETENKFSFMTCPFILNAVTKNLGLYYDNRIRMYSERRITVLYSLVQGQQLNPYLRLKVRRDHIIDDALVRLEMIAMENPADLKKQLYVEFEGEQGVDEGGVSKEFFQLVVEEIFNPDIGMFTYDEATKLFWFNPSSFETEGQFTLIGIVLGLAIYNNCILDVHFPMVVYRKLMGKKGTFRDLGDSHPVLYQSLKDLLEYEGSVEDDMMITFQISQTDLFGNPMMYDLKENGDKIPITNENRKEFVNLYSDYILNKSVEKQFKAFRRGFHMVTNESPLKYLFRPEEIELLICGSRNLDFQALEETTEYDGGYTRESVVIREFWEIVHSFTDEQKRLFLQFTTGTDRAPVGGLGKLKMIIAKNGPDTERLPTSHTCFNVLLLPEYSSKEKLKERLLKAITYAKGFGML

Row | Binder | binding [1] | binding [2] | binding [3]
1 | SynGAP1 (protein, UniProt F6SEU4 1-1340) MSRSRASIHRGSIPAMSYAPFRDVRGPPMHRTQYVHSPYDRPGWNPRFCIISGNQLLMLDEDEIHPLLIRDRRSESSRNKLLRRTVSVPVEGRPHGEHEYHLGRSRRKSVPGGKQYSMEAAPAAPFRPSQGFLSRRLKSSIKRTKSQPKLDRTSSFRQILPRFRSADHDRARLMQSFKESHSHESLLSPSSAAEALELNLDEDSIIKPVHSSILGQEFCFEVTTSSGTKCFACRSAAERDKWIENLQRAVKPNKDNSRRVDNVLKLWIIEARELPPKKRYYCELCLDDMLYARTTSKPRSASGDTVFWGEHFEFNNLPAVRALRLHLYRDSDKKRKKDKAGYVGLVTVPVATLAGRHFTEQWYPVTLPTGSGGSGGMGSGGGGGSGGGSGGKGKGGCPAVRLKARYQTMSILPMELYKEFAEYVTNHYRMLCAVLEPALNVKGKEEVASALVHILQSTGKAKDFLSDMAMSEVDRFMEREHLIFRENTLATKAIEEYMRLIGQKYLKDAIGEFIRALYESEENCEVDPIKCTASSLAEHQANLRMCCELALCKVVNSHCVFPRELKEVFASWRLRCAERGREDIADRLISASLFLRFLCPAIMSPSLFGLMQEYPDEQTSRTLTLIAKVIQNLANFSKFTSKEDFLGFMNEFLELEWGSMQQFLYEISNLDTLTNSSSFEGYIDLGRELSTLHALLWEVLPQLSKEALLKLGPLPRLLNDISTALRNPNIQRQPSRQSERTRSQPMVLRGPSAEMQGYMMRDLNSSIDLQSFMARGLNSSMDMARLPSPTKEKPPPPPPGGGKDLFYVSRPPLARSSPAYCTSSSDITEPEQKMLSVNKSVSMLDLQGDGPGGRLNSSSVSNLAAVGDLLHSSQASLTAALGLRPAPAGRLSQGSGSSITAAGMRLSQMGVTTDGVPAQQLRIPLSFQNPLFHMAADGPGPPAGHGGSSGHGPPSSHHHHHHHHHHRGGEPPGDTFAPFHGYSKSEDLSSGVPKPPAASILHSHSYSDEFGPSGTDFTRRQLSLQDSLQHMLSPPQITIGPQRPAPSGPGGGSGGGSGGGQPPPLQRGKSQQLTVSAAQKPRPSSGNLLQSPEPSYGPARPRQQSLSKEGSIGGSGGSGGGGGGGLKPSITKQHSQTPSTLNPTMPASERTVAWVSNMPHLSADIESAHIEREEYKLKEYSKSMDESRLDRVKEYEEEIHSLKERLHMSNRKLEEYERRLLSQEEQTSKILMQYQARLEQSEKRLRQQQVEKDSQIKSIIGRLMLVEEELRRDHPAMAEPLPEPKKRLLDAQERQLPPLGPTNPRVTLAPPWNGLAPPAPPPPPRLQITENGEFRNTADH | binds | binds | –
2 | Homer1 (protein, UniProt Q9Z2Y3 1-366) MGEQPIFSTRAHVFQIDPNTKKNWVPTSKHAVTVSYFYDSTRNVYRIISLDGSKAIINSTITPNMTFTKTSQKFGQWADSRANTVYGLGFSSEHHLSKFAEKFQEFKEAARLAKEKSQEKMELTSTPSQESAGGDLQSPLTPESINGTDDERTPDVTQNSEPRAEPTQNALPFPHSAGDRTQALSHASSAISKHWEAELATLKGNNAKLTAALLESTANVKQWKQQLAAYQEEAERLHKRVTELECVSSQANAVHSHKTELNQTVQELEETLKVKEEEIERLKQEIDNARELQEQRDSLTQKLQEVEIRNKDLEGQLSDLEQRLEKSQNEQEAFRSNLKTLLEILDGKIFELTELRDNLAKLLECS | – | – | binds
